Measured data: PubChem BioAssay AID1259405 (NCATS, 2018)
In all, the deposit lists about 50,000 reagents; below is a random part of them. Over the whole deposit, about 4,000 (8%) are marked active. 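Mouse siRNA library applied to hamster cells; one well for each siRNA.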 Reagents against one gene are numbered here.

Purpose: 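Silenced genes that increase secreted GFP made by CHO cells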 (primary screen)
Cells: Chinese hamster CHO-K1 ovary cells with stable secreted eGFP expression
Reagents: single siRNA against mouse genes, 0.8 pmol siRNA per well (2 µl of 400 nM stock)
Timing: 3 days
Detection: 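Percent of the per-plate non-targeting control median for intracellular GFP per well by laser scanning cytometry and for cell viability by ATP luminescence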
Scale: GFP, % of control: higher = more GFP per well, higher productivity; viability (ATP), % of control: higher = more viable cells (more ATP)
Active means: 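a knock-down is called active if GFP reaches 120% or more of non-targeting control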

no.	gene symbol	reagent	GFP, % of control	viability (ATP), % of control	Call
1	Zfp975	1	74.8	67.5	inactive
2	Zfp975	2	104	105	inactive
3	Zfp975	3	75.1	81.7	inactive
4	Slc10a5	1	148	75.8	active
5	Slc10a5	2	68.5	46.1	inactive
6	Slc10a5	3	75.2	103	inactive
7	Golm1	1	62.7	65.1	inactive
8	Golm1	2	50.9	56.3	inactive
9	Golm1	3	41.9	40.9	inactive
10	Park7	1	92.5	72.8	inactive
11	Park7	2	62.8	65.8	inactive
12	Dcaf12	1	109	96.7	inactive
13	Dcaf12	2	112	78.4	inactive
14	Dcaf12	3	94.7	106	inactive
15	Pitx3	1	126	108	active
16	Pitx3	2	65.1	94.3	inactive
17	Ptgis	1	90.6	79.6	inactive
18	Ptgis	2	43.2	33.9	inactive
19	Ptgis	3	91	76.6	inactive
20	Atg12	1	98.3	75.5	inactive
21	Atg12	2	105	102	inactive
22	Atg12	3	54	63.2	inactive
23	Dhx34	1	62.1	64.5	inactive
24	Dhx34	2	83.3	72.9	inactive
25	Dhx34	3	72.5	62.9	inactive
26	Slc60a2c	1	64.6	53.3	inactive
27	Slc60a2c	2	78	97	inactive
28	Slc60a2c	3	143	162	active
29	Osbp2	1	84.8	90.3	inactive
30	Osbp2	2	72.3	56.4	inactive
31	Osbp2	3	116	133	inactive
32	Txn1	1	74	55.8	inactive
33	Txn1	2	38.6	43.3	inactive
34	Txn1	3	98	54.4	inactive
35	Aldh5a1	1	105	102	inactive
36	Aldh5a1	2	76	76.4	inactive
37	Aldh5a1	3	92.3	91.5	inactive
38	Ube2dnl1	1	79.5	85	inactive
39	Ube2dnl1	2	94.3	97.8	inactive
40	Ube2dnl1	3	72.5	77.7	inactive
41	Akr1c14	1	102	85.6	inactive
42	Akr1c14	2	66.2	60.8	inactive
43	Akr1c14	3	69	99.4	inactive
44	9330154K18Rik	1	48.4	48.2	inactive
45	9330154K18Rik	2	64.2	76.7	inactive
46	9330154K18Rik	3	87.1	100	inactive
47	Amt	1	81.7	36.4	inactive
48	Amt	2	104	75.2	inactive
49	Amt	3	85.9	94.1	inactive
50	Nudt14	1	104	102	inactive
51	Nudt14	2	74.8	58.1	inactive
52	Nudt14	3	61.6	70.7	inactive
53	Mthfr	1	87.3	97.3	inactive
54	Mthfr	2	136	103	active
55	Mthfr	3	61.6	64	inactive
56	Scnn1g	1	40.8	52.8	inactive
57	Scnn1g	2	100	60.1	inactive
58	Scnn1g	3	87.1	70.7	inactive
59	Zfp647	1	83.9	71.5	inactive
60	Zfp647	2	88.7	76.1	inactive
61	Exoc8	1	67.2	87.5	inactive
62	Exoc8	2	120	93	inactive
63	Exoc8	3	129	63.3	active
64	Mtcl1	1	83	87.4	inactive
65	Mtcl1	2	109	103	inactive
66	Mtcl1	3	94.1	82.5	inactive
67	Ahctf1	1	89.3	86.1	inactive
68	Ahctf1	2	75.5	79.5	inactive
69	Ahctf1	3	49.7	41.8	inactive
70	Tma16	1	46	49.3	inactive
71	Tma16	2	67	78.2	inactive
72	Tma16	3	84.1	83.8	inactive
73	Tbce	1	68.3	49.6	inactive
74	Tbce	2	31.2	59.9	inactive
75	Tbce	3	25.1	67.6	inactive
76	Zbtb8b	1	46.3	48.4	inactive
77	Zbtb8b	2	66.3	69.5	inactive
78	Zbtb8b	3	70.9	99.4	inactive
79	Ncoa2	1	83.8	79.6	inactive
80	Ncoa2	2	153	84.4	active
81	Olfr908	1	92.7	88.5	inactive
82	Olfr908	2	84	61.2	inactive
83	Olfr908	3	89.1	74.9	inactive
84	Cbr2	1	54.9	83.7	inactive
85	Cbr2	2	61.8	67.8	inactive
86	Cbr2	3	43.5	33.7	inactive
87	Ap1g2	1	44.4	42.8	inactive
88	Ap1g2	2	88.2	56.8	inactive
89	Ap1g2	3	90.2	61	inactive
90	Zfp282	1	74.2	69.2	inactive
91	Zfp282	2	95.5	82.2	inactive
92	Zfp282	3	85.9	91.1	inactive
93	Or4a70	1	58.1	74.7	inactive
94	Or4a70	2	135	84.2	active
95	Or4a70	3	77.4	117	inactive
96	Gpr65	1	63.1	84.6	inactive
97	Gpr65	2	73.9	77.2	inactive
98	Gpr65	3	73.4	66.9	inactive
99	Abcc4	1	114	101	inactive
100	Abcc4	2	56.5	65.2	inactive
101	Abcc4	3	44.6	73.2	inactive
102	Usp12	1	73.1	106	inactive
103	Usp12	2	53.5	55.5	inactive
104	Usp12	3	52.5	64	inactive
105	Mat2a	1	73.2	36.3	inactive
106	Mat2a	2	71	100	inactive
107	Mat2a	3	119	86.5	inactive

Reformatted: entries from further up
Exoc8 #3 | GFP, % of control = 129; viability (ATP), % of control = 63.3; Call = active
Mtcl1 #1 | GFP, % of control = 83; viability (ATP), % of control = 87.4; Call = inactive
Mtcl1 #2 | GFP, % of control = 109; viability (ATP), % of control = 103; Call = inactive
Mtcl1 #3 | GFP, % of control = 94.1; viability (ATP), % of control = 82.5; Call = inactive
Ahctf1 #1 | GFP, % of control = 89.3; viability (ATP), % of control = 86.1; Call = inactive
Ahctf1 #2 | GFP, % of control = 75.5; viability (ATP), % of control = 79.5; Call = inactive
Ahctf1 #3 | GFP, % of control = 49.7; viability (ATP), % of control = 41.8; Call = inactive
Tma16 #1 | GFP, % of control = 46; viability (ATP), % of control = 49.3; Call = inactive
Tma16 #2 | GFP, % of control = 67; viability (ATP), % of control = 78.2; Call = inactive
Tma16 #3 | GFP, % of control = 84.1; viability (ATP), % of control = 83.8; Call = inactive
Tbce #1 | GFP, % of control = 68.3; viability (ATP), % of control = 49.6; Call = inactive
Tbce #2 | GFP, % of control = 31.2; viability (ATP), % of control = 59.9; Call = inactive
Tbce #3 | GFP, % of control = 25.1; viability (ATP), % of control = 67.6; Call = inactive
Zbtb8b #1 | GFP, % of control = 46.3; viability (ATP), % of control = 48.4; Call = inactive
Zbtb8b #2 | GFP, % of control = 66.3; viability (ATP), % of control = 69.5; Call = inactive
